Reference: paper doi:10.1101/2021.11.02.466889

Biological target: T1, ScCda2 (yeast two-hybrid fusion) (Saccharomyces cerevisiae) (UniProt Q06703)
T1 sequence: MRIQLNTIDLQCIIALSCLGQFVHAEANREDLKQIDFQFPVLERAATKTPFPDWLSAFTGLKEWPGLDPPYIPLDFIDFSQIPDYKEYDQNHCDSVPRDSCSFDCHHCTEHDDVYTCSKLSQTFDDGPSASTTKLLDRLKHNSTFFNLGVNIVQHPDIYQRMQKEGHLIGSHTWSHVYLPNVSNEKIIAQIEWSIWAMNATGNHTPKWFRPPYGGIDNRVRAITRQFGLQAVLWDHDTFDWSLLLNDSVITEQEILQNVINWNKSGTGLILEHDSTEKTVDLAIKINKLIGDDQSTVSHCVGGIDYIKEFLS
Test: two-hybrid

Q: How did the binding turn out when AD-AFP1 (maize) was run?
A: binds

These are yes or no findings as the source states them, for the method shown. Binding can be weak; no strength is given. Where a sequence is shown, tags or fusion partners need not be part of it.
